Measured values published in PMC9305297.
Results are given in words; binding and its absence hold for the method and conditions named. Binding seen in cells or lysates may run through a third protein. These calls come from enrichment with a bait or labelling near it, and not all partners need be listed. Sequences can lack the tags named with a protein.

Protein sequences, listed by entry. Tags and fused reporters are not part of them.
UniProt P38873: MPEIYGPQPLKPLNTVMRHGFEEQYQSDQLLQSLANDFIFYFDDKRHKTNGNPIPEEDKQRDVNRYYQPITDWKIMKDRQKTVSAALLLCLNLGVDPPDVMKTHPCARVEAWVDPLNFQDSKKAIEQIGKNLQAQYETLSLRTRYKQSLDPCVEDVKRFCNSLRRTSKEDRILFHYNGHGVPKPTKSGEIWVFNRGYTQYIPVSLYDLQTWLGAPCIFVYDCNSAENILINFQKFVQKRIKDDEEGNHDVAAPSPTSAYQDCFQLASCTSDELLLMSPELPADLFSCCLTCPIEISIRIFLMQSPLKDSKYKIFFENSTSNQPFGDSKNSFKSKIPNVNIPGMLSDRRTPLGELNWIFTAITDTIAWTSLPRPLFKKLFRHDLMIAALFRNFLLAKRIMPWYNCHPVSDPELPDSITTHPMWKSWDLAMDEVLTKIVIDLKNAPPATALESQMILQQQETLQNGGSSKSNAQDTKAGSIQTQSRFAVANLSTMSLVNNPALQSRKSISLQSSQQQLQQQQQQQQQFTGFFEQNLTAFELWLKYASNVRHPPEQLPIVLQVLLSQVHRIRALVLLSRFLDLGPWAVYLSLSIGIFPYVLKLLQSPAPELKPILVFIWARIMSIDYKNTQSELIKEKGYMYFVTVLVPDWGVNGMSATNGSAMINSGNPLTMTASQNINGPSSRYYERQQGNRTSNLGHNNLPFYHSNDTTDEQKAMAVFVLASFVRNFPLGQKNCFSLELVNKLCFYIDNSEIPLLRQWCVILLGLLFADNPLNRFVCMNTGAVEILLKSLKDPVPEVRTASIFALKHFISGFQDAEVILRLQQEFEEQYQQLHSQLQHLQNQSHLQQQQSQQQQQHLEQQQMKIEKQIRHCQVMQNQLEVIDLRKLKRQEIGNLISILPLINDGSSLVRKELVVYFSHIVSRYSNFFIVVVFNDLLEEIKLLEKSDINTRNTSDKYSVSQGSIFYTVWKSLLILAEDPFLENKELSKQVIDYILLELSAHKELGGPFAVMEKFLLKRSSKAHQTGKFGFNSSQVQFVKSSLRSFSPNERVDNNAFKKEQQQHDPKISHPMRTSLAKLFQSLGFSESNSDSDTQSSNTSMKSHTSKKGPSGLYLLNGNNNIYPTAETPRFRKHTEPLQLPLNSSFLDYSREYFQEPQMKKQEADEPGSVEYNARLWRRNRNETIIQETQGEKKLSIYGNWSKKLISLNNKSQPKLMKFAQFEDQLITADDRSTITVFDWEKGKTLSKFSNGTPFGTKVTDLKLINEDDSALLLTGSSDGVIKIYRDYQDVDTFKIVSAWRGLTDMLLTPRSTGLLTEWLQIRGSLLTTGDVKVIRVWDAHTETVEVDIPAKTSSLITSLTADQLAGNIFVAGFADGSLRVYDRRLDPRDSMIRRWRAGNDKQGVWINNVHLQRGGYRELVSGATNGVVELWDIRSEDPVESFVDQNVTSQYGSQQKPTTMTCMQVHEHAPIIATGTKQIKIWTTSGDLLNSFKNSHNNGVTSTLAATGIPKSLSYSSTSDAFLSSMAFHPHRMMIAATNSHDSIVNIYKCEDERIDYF
UniProt P47170: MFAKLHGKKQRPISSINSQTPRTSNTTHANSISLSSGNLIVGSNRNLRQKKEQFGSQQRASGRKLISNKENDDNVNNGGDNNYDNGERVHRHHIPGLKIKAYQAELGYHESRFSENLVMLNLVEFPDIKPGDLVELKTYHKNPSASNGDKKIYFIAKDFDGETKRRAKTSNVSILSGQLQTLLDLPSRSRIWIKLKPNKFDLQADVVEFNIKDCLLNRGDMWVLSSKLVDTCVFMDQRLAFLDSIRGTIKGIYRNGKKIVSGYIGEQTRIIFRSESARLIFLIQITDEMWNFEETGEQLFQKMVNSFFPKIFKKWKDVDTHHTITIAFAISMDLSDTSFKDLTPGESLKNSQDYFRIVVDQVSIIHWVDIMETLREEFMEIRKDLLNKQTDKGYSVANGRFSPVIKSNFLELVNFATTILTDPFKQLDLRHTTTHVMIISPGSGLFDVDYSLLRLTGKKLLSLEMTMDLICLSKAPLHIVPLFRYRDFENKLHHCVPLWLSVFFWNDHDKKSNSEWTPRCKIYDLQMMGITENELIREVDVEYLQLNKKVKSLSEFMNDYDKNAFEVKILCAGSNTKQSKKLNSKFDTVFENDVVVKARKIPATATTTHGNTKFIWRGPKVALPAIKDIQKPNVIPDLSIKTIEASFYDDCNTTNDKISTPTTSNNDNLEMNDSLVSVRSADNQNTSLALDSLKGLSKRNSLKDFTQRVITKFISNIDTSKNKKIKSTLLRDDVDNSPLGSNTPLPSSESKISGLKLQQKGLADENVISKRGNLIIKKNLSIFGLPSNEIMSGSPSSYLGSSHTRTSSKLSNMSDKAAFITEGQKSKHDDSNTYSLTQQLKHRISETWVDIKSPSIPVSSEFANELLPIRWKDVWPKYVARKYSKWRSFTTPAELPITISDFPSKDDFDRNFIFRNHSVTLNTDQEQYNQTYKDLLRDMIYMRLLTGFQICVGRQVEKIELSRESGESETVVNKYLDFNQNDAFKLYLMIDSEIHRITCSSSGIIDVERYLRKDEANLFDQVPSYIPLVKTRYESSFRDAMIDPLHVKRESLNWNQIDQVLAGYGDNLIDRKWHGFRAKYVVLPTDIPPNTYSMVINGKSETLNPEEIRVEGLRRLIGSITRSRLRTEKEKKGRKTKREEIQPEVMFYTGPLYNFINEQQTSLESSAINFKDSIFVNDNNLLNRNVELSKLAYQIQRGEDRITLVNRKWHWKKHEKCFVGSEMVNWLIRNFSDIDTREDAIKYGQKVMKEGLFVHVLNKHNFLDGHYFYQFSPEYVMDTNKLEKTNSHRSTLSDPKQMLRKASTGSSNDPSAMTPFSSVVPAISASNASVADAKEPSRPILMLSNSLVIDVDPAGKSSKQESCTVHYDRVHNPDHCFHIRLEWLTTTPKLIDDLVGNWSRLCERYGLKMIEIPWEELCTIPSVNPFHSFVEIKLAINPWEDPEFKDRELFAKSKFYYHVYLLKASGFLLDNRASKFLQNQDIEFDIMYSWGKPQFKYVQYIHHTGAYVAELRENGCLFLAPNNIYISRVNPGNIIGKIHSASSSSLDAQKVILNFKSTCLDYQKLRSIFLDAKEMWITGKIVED

T1: GFP-Vps501 (S. cerevisiae) (UniProt P36158)
T1 sequence: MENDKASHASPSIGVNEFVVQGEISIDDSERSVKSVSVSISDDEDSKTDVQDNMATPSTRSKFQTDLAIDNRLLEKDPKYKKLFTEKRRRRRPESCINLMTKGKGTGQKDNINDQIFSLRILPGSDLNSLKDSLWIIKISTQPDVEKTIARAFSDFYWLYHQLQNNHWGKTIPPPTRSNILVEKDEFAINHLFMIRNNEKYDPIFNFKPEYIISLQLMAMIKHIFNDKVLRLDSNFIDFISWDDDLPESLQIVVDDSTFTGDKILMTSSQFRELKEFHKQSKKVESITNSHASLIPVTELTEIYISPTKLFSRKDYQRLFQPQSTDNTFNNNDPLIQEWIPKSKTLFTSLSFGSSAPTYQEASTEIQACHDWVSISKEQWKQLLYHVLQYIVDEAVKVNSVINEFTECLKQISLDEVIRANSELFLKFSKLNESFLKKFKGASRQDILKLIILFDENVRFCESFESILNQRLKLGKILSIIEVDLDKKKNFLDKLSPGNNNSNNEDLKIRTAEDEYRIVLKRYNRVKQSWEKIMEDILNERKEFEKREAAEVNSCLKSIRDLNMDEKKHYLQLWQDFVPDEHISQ

B1: Seh1 (protein, UniProt P53011 1-349)
chain: MQPFDSGHDDLVHDVVYDFYGRHVATCSSDQHIKVFKLDKDTSNWELSDSWRAHDSSIVAIDWASPEYGRIIASASYDKTVKLWEEDPDQEECSGRRWNKLCTLNDSKGSLYSVKFAPAHLGLKLACLGNDGILRLYDALEPSDLRSWTLTSEMKVLSIPPANHLQSDFCLSWCPSRFSPEKLAVSALEQAIIYQRGKDGKLHVAAKLPGHKSLIRSISWAPSIGRWYQLIATGCKDGRIRIFKITEKLSPLASEESLTNSNMFDNSADVDMDAQGRSDSNTEEKAELQSNLQVELLSEHDDHNGEVWSVSWNLTGTILSSAGDDGKVRLWKATYSNEFKCMSVITAQQ

Biological target: T1, GFP-Vps501 (S. cerevisiae)
Assay: affinity purification with mass spectrometry; GFP-Vps501 captured from 200 mg whole cell protein extract on GFP-Trap Magnetic Agarose, 4°C, 20 min; washed five times in 50 mM Tris-HCl pH 7.4, 150 mM NaCl; SDS-PAGE, in-gel trypsin digestion, LC-MS/MS; triplicate, normalised to beads alone

Row | Molecule | binding
1 | Kog1 (from UniProt P38873 1-1557) | binds
2 | Sea1 (from UniProt P47170 1-1584) | binds
3 | B1 | binds
